Results deposited as PubChem BioAssay AID652259 (Drosophila RNAi Screening Center, 2013).

Test: 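Identify new Wingless signalling regulators in fly cells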 (primary screen)
Cells: Drosophila clone 8 imaginal disc epithelial cells
Knock-down reagent: long dsRNA against Drosophila genes
Treatment: pathway stimulated by co-transfected Wingless expression plasmid
Measurement: 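Dual luciferase reads per well after Wingless plasmid stimulation: reporter firefly light and Renilla control light; activity is firefly divided by Renilla, a ratio not deposited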
Scale: firefly reporter light: higher = more Wg reporter light, before normalisation; Renilla control light: higher = more transfected or surviving cells
Hit rule: 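Strong candidates differ from their plate mean by at least two out of four per-plate statistical tests; weak candidates meet just one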
Calls: active = candidate regulator (raises or lowers reporter); inactive = not a candidate
The screen tested about 22,000 reagents; below is an unselected part of those that have a named target and a result. In the full data, 233 (1.1%) got an active call. 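Light values are raw, unnormalised plate reads; the ratio scores behind the reporter calls were not deposited.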 Entries without a mark were called inactive. The numbers tell different reagents against one gene apart. No sequences are given here. The record does not give: the amount of reagent, the time to read-out, the dose of the treatment.

target	reagent no.	reporter change call, replicate 1	firefly reporter light, replicate 1	firefly reporter light, replicate 2	Renilla control light, replicate 1	Renilla control light, replicate 2
CG4440	1		2713	6161	1098	2858
Nepl14 (Neprilysin-like 14)	1		15297		12179	
Cyp4p3 (Cytochrome P450 4p3)	1		4043	9600	1175	1959
CG30324	1		6.77e5	6.17e5	2.31e5	80426
Mal-A8 (Maltase A8)	1		2761	6437	819	2935
CG4596	1		13074		3514	
CG13287	1		2598		969	
pwn (pawn)	1		3011	7968	864	3206
hmw (hemingway)	1		3417	5620	1297	1672
hydra	1		17043		9105	
dome (domeless)	1		1740	5956	784	1824
ScsbetaG (Succinyl-coenzyme A synthetase beta subunit, GDP-forming)	1		1619	7618	1221	4666
CG14126 (retired record)	1		4865		2544	
CG17047	1	Wg reporter activity raised	6265		3516	
CG10444	1		12444		2461	
CG13793	1		3271	7053	1240	3033
CG34296	1		4443		2393	
hll (heimdall)	1		4032		979	
CG12929	1		4176	10017	1536	4192
gas (gasoline)	1		2387	5936	599	1364
CG18539	1		7824		2778	
Rnf11 (Ring finger protein 11)	1		7.03e5	8.08e5	3.44e5	2.90e5
Cpr65Au (Cuticular protein 65Au)	1		3.97e5	3.80e5	1.62e5	92402
CG5664	1		3584		1302	
Ankrd49	1		2355	4752	1235	2653
CG3156	1		2360	8617	1459	2838
CG15404	1		2011	5719	758	2545
CG32040	1		4070		914	
CG32040	2		4.36e5	4.11e5	1.65e5	1.15e5
CG17660	1		12819		5124	
CG5515	1		2336	3771	1207	1267
Alp8 (Alkaline phosphatase 8)	1		3915	11251	1160	4871
Rpn11 (Regulatory particle non-ATPase 11)	1		1559	3024	464	1049
CG43149	1		2087		1476	
CG43795	1		2120	8625	739	3419
CG43795	2		4352	11321	1287	5509
CG43795	3		4765	8004	1200	3419
CG43795	4		2509	8229	796	2776
CG43795	5		2957	7981	681	1789
CG43795	6		1827	6274	496	1936
CG43795	7		8.21e5	9.53e5	2.91e5	3.65e5
Orc1 (Origin recognition complex subunit 1)	1		2848		432	
CG5506	1		6360		2738	
CG31924	1		3115	6596	1501	2986
CG3511	1		12281		3320	
CG30195	1		3445	8907	848	3680
CG32099	1		3.38e5	4.70e5	1.70e5	1.80e5
Vajk3	1		9090		3049	
spn-D (spindle D)	1		4.75e5	6.01e5	1.88e5	2.09e5
CG9519	1		1943	5593	1035	2592
CG15741	1		27400		9580	
Irk1 (Inwardly rectifying potassium channel 1)	1		19419		16237	
Irk1 (Inwardly rectifying potassium channel 1)	2		10961		10758	
Pig1 (Pre-intermoult gene 1)	1		15280		7584	
ttm2 (tiny tim 2)	1		5051		2198	
Muc12Ea (Mucin 12Ea)	1		26593	8.25e5	14371	3.56e5
Mal-A4 (Maltase A4)	1		3206	8704	705	2509
CG32544	1		22141		8535	
CG40341 (retired record)	1		18072		11194	
CG40341 (retired record)	2		21392		11990	
CG15890	1		13248		6211	
scb (scab)	1		23395		17405	
scb (scab)	2		7174		2135	
Npc2g (Niemann-Pick type C-2g)	1		9040		3270	
hlk (hulk)	1		2964	4407	514	1744
hlk (hulk)	2		2409	8396	402	2484
Srr (Serine racemase)	1		21479		6198	
CG12914	1		2250	6965	903	2770
CG11170	1		9147		2659	
Alg12 (Alg12 alpha-1,6-mannosyltransferase)	1		11661		3348	
Kap-alpha3 (karyopherin alpha3)	1		17526		2537	
CG12680	1		17412		7824	
RtGEF (Rho-type guanine nucleotide exchange factor)	1		2583	7239	310	3200
RtGEF (Rho-type guanine nucleotide exchange factor)	2		5.08e5	5.67e5	2.57e5	2.52e5
